Experimental findings from publication doi:10.1101/2022.05.20.492668 are described below.

This test addresses Ras-related protein Rab-11A (mouse (endogenous in brain synaptoneurosomes)). The experiment in a line: co-IP.

These are yes or no findings as the source states them, for the method shown. In cells and extracts the contact can be indirect. Binding can be weak; no strength is given.

B1: autophagy-related protein 9A (protein, UniProt Q68FE2 1-839)
chain: MAQFDTEYQRLEASYSDSPPGEEDLLVHVAEGSKSPWHHIENLDLFFSRVYNLHQKNGFTCMLIGEMFELMQFLFVVAFTTFLVSCVDYDILFANKMVNHSLHPTEPVKVTLPDAFLPAQVCSARIQENGSLITILVIAGVFWIHRLIKFIYNICCYWEIHSFYLHALRIPMSALPYCTWQEVQARIVQTQKEHQICIHKRELTELDIYHRILRFQNYMVALVNKSLLPLRFRLPGLGEVVFFTRGLKYNFELILFWGPGSLFLNEWSLKAEYKRGGQRLELAQRLSNRILWIGIANFLLCPLILIWQILYAFFSYAEVLKREPGALGARCWSLYGRCYLRHFNELEHELQSRLNRGYKPASKYMNCFLSPLLTLLAKNGAFFAGSILAVLIALTIYDEDVLAVEHVLTTVTLLGVTVTVCRSFIPDQHMVFCPEQLLRVILAHIHYMPDHWQGNAHRSQTRDEFAQLFQYKAVFILEELLSPIVTPLILIFCLRPRALEIIDFFRNFTVEVVGVGDTCSFAQMDVRQHGHPQWLSGGQTEASVYQQAEDGKTELSLMHFAITNPGWQPPRESTAFLGFLKEQVQRDGAAAGLAQGGLLPENALFTSIQSLQSESEPLSLIANVVAGSSCRGPSLSRDLQGSRHRADVASALRSFSPLQPGAAPQGRVPSTMTGSGVDARTASSGSSVWEGQLQSLVLSEYASTEMSLHALYMHQLHKQQTQAEPERHVWHRRESDESGESAPEEGGEGARAPQPIPRSASYPCATPRPGAPETTALHGGFQRRYGGITDPGTVPRGPSHFSRLPLGGWAEDGQPASRHPEPVPEEGSEDELPPQVHKV
For B1, the binding entry is reported as “binds”.
